Experimental data published in article PMC4810121, “Proteomics Analysis Reveals Novel RASSF2 Interaction Partners” (Cancers, 2016).
No constants are given. Whether binding was seen depends on the method and setting. In cells and extracts the contact can be indirect. These calls come from enrichment with a bait or labelling near it, and not all partners need be listed. For some assays here: No binding means not detected with the bait. Sequences can lack the tags named with a protein.

The chains behind the UniProt entries cited, without tags or fusion partners. Residues count along the entry.
UniProt P08670: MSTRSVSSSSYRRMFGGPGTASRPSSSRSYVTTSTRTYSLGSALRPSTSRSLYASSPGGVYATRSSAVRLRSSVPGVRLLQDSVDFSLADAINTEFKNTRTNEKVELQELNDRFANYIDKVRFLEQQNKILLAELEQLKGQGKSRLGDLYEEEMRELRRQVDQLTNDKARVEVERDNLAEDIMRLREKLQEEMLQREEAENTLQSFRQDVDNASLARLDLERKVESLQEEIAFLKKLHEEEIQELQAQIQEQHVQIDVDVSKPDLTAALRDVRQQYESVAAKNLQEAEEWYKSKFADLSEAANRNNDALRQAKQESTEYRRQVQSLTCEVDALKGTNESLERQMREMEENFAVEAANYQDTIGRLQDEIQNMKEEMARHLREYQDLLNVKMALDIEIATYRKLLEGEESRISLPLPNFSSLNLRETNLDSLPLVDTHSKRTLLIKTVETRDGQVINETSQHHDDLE
UniProt Q07021, residues 74-282: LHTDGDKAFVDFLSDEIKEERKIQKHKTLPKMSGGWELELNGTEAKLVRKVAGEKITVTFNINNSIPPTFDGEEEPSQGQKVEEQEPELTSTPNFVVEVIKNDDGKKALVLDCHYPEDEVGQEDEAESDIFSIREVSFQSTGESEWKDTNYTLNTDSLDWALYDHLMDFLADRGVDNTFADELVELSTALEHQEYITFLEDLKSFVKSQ
UniProt Q8IWZ3: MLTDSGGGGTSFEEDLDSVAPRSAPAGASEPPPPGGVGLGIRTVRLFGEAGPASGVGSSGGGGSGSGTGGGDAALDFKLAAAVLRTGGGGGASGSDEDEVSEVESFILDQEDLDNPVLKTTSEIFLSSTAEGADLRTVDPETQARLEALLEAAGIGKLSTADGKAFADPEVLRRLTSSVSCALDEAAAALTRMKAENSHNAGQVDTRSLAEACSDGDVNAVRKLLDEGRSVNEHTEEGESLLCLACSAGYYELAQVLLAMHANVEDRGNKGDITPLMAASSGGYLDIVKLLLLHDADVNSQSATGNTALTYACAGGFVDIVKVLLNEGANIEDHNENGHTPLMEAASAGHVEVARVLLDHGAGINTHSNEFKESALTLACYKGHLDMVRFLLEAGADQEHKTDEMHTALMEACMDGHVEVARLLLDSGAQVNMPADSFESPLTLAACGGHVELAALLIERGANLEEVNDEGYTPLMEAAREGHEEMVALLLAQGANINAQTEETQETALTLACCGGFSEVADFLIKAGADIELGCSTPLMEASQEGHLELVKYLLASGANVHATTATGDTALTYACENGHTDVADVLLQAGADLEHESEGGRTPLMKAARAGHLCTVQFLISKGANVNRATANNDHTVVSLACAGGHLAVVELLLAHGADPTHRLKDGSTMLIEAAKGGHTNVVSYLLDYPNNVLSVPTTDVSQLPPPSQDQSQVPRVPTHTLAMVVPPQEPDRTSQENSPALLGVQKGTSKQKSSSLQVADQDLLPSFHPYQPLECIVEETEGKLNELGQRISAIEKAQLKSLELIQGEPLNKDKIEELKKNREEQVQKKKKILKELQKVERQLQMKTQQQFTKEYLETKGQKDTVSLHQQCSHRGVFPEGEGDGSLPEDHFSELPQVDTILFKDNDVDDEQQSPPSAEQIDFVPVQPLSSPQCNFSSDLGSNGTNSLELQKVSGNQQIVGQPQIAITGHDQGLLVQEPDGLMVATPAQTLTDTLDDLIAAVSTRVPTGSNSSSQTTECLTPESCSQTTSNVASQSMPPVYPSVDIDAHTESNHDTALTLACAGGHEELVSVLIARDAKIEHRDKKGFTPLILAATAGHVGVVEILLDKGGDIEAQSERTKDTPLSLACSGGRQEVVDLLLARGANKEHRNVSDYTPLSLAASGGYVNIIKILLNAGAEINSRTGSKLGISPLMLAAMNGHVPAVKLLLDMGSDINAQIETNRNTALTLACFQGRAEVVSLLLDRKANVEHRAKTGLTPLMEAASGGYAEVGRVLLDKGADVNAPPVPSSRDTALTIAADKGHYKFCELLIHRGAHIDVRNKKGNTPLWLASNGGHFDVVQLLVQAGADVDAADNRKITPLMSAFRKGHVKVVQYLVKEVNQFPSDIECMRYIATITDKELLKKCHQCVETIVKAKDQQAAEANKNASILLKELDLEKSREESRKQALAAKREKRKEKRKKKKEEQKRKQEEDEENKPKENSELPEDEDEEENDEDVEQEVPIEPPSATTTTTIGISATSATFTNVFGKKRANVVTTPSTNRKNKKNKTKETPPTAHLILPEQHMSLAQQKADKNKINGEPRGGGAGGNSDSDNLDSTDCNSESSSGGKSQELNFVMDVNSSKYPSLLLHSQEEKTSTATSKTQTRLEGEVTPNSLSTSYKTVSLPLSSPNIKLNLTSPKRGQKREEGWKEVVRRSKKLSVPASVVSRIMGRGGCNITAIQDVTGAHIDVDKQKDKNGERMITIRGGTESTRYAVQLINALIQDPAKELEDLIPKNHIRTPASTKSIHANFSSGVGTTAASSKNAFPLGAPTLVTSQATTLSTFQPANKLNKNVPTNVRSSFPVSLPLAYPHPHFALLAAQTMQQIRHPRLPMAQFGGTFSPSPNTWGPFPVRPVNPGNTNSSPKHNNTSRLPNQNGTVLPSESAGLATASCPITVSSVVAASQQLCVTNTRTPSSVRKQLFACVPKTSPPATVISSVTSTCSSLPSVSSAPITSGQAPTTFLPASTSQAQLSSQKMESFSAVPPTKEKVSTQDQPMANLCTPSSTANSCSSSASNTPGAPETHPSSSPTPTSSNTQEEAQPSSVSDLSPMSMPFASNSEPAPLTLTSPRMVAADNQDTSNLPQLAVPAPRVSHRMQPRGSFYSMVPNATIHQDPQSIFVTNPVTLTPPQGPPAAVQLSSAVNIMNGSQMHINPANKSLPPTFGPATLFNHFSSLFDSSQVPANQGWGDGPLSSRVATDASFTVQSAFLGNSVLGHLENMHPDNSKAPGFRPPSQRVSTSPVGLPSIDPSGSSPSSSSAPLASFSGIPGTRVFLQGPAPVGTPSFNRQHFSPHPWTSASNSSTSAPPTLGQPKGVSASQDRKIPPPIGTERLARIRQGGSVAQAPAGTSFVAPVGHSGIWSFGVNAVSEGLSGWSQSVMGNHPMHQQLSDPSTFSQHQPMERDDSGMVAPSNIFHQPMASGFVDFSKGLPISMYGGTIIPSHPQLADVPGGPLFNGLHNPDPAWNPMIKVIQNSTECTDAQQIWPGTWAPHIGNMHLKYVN
UniProt P62258: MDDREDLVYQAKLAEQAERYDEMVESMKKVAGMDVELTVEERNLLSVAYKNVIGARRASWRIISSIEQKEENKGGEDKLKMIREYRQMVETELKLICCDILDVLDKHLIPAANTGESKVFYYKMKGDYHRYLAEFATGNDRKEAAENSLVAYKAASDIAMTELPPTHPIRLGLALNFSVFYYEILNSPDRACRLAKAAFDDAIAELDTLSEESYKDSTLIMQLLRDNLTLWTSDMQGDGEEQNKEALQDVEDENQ

T1: HA-tagged RASSF2 (UniProt P50749)
T1 sequence: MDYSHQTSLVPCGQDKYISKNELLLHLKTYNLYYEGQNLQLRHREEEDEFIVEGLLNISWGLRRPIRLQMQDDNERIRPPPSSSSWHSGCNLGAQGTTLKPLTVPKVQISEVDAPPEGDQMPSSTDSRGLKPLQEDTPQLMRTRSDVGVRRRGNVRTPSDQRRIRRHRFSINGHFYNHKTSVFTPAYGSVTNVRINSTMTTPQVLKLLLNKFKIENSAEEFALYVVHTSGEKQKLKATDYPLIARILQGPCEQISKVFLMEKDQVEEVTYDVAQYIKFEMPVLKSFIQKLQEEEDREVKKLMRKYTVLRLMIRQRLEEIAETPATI

B1: Ribonuclease inhibitor (protein, UniProt P13489 1-461)
chain: MSLDIQSLDIQCEELSDARWAELLPLLQQCQVVRLDDCGLTEARCKDISSALRVNPALAELNLRSNELGDVGVHCVLQGLQTPSCKIQKLSLQNCCLTGAGCGVLSSTLRTLPTLQELHLSDNLLGDAGLQLLCEGLLDPQCRLEKLQLEYCSLSAASCEPLASVLRAKPDFKELTVSNNDINEAGVRVLCQGLKDSPCQLEALKLESCGVTSDNCRDLCGIVASKASLRELALGSNKLGDVGMAELCPGLLHPSSRLRTLWIWECGITAKGCGDLCRVLRAKESLKELSLAGNELGDEGARLLCETLLEPGCQLESLWVKSCSFTAACCSHFSSVLAQNRFLLELQISNNRLEDAGVRELCQGLGQPGSVLRVLWLADCDVSDSSCSSLAATLLANHSLRELDLSNNCLGDAGILQLVESVRQPGCLLEQLVLYDIYWSEEMEDRLQALEKDKPSLRVIS
B2: Protein phosphatase 1G (protein, UniProt O15355 1-546)
chain: MGAYLSQPNTVKCSGDGVGAPRLPLPYGFSAMQGWRVSMEDAHNCIPELDSETAMFSVYDGHGGEEVALYCAKYLPDIIKDQKAYKEGKLQKALEDAFLAIDAKLTTEEVIKELAQIAGRPTEDEDEKEKVADEDDVDNEEAALLHEEATMTIEELLTRYGQNCHKGPPHSKSGGGTGEEPGSQGLNGEAGPEDSTRETPSQENGPTAKAYTGFSSNSERGTEAGQVGEPGIPTGEAGPSCSSASDKLPRVAKSKFFEDSEDESDEAEEEEEDSEECSEEEDGYSSEEAENEEDEDDTEEAEEDDEEEEEEMMVPGMEGKEEPGSDSGTTAVVALIRGKQLIVANAGDSRCVVSEAGKALDMSYDHKPEDEVELARIKNAGGKVTMDGRVNGGLNLSRAIGDHFYKRNKNLPPEEQMISALPDIKVLTLTDDHEFMVIACDGIWNVMSSQEVVDFIQSKISQRDENGELRLLSSIVEELLDQCLAPDTSGDGTGCDNMTCIIICFKPRNTAELQPESGKRKLEEVLSTEGAEENGNSDKKKKAKRD

Columns and labels:
HA-tagged RASSF2 [1] = molecular target: T1, HA-tagged RASSF2; experiment: affinity purification with mass spectrometry; HA-RASSF2 transfected into HEK-293T cells, immunoprecipitated by the HA tag; co-purifying proteins identified by LC-MS; done in the presence and absence of activated K-Ras12v
HA-tagged RASSF2 [2] = molecular target: T1, HA-tagged RASSF2; experiment: condition: only with activated K-Ras12v co-expressed; affinity purification with mass spectrometry; as a1, sample with activated K-Ras12v co-expressed (+K-Ras12v column)

binding (HA-tagged RASSF2 [1]) | binding (HA-tagged RASSF2 [2]) | Molecule
binds |  | DnaJ homolog subfamily A member 1 (from UniProt P31689 1-397)
binds | no binding | Vimentin (endogenous, HEK-293T) (from UniProt P08670 1-466)
binds |  | C1QBP (endogenous, HEK-293T) (from UniProt Q07021 74-282)
binds |  | Ankyrin repeat and KH domain-containing protein 1 (from UniProt Q8IWZ3 1-2542)
binds |  | 14-3-3ε (from UniProt P62258 1-255)
binds |  | B1
binds |  | B2
